In patent US4859707A, “Sulfur-substituted phenylacetamides” (Key Pharmaceuticals, Inc., priority 1983, dated 1989) one finds LD50 data, which are given here for 1 molecule.

Usually LD50 stands for the dose expected to kill half of the subjects tested.

SMILES strings stand for the structures.

The series in a line: Estimation of LD50 in mice. As to conditions: mouse, in vivo, ip, intraperitoneal in dimethylsulfoxide, observed for 48 hr. As to the method:
The LD50 in white CD-1 male mice (average mass, 24.0±0.1 g) was estimated. A solution of the compound to be tested in dimethysulfoxide was injected intraperitoneally and the animals observed for 48 hr.

Regarding `CCN(CC)CC(=O)Nc1c(C)cccc1C` [lidocaine, reference compound], the LD50 at 48 h was 130 mg/kg.
